This is one part of the list.
molecular target: T1, OsSMF1 (Oryza sativa, UniProt Q6ZLB0 1-436); assay: protein-binding microarray (RPBM); PBS, 2% BSA, 51.3 ng/ul salmon testes DNA, 50 uM zinc acetate, 200 nM TF, 25 C, 1 h; high values mean tight binding; details: protein: recombinant; tags: N-terminal polyhistidine and DsRed monomer fusion (pET32a); chain copies: 2; label: CyDye5-dUTP incorporated in the synthesized complementary strand; 3' TTTTT single-stranded linker to array surface; dsDNA, one strand shown
T1 sequence: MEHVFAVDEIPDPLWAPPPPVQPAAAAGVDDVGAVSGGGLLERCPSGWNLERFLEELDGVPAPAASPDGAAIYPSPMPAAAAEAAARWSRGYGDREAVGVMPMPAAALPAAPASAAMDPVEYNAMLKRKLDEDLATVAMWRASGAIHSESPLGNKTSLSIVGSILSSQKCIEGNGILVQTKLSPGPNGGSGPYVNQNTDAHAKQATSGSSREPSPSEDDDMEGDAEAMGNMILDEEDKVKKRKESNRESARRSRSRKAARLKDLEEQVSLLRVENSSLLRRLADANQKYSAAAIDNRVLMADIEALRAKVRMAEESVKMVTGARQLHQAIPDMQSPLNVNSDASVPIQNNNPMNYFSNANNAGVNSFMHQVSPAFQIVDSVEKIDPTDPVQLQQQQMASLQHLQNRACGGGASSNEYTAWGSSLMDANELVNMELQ
Outline: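 Using Ni–NTA, transcription factors fused N-terminally to polyhistidine and DsRed were purified after expression in E. coli BL21-CodonPlus. These were incubated at 200 nM with a blocked, double-stranded custom Agilent array for 1 h at 25 °C in a buffer containing 50 µM zinc acetate, and the array was washed. The binding signal is per-feature fluorescence intensity (arbitrary units) on an Axon 4000B scanner.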

| Sequence | binding signal |
| --- | --- |
| GTGTTGGCCCGATTGAGATGTGTCATCCGTGATGGCCGGACGGAGTCACCTAGTGCAG | 3400 fluorescence intensity (a.u.) |
| CGCTTGTACTGATTTGGTTTTGGTTGCTGGGTTGGATGGTCGGAGTCACCTAGTGCAG | 3440 fluorescence intensity (a.u.) |
| TCTCGATCTCCCCGCCTATTTATGCTCGTCTCGTCACCCGCGGAGTCACCTAGTGCAG | 3600 fluorescence intensity (a.u.) |
| CCATGCCATGTATAGCCGCGCTGCTGATGCGGCCCTCCAGCGGAGTCACCTAGTGCAG | 4440 fluorescence intensity (a.u.) |
| AAACGGATAAGTTAGTAAGTAATTTCTTCCCTCCTAATTTCGGAGTCACCTAGTGCAG | 45900 fluorescence intensity (a.u.) |
| GGTATAAAAGATCCAGGAGAAGCATGCAACCCAGCAAGCCCGGAGTCACCTAGTGCAG | 21300 fluorescence intensity (a.u.) |
| AATTGGGATCAAAGCCTTCATGTTCATAGCAAATCAAGAGCGGAGTCACCTAGTGCAG | 45900 fluorescence intensity (a.u.) |
| ATTCGGGAATTTCTGGGCGTGACACGTTGCCACTAATCCGCGGAGTCACCTAGTGCAG | 6890 fluorescence intensity (a.u.) |
| AGACATATCCTTATTGTTTCAAATTTCAAACTGTATTATGCGGAGTCACCTAGTGCAG | 3570 fluorescence intensity (a.u.) |
| TCCGCCGTTGACGACCACTCCCACGTGCCCTCCACTACACCGGAGTCACCTAGTGCAG | 3600 fluorescence intensity (a.u.) |
| TAATTCATCTCTACACACCCACGTGGATGGATATACTCGCCGGAGTCACCTAGTGCAG | 12300 fluorescence intensity (a.u.) |
| TTCGGGCATACGCCACCCCGCCTTGTCATCCACCGCGCCCCGGAGTCACCTAGTGCAG | 7810 fluorescence intensity (a.u.) |
| GTCCGCTGGAGAGGCATCGACCACGTCATTTGACTGGTCGCGGAGTCACCTAGTGCAG | 10600 fluorescence intensity (a.u.) |
| AGAATGATGAACTAACTGTCCTCAAATAATCATGTCAGCTCGGAGTCACCTAGTGCAG | 3590 fluorescence intensity (a.u.) |
| AAGTTTAACATTAAAACTTAGTTGTGGTTGATAAACATGGCGGAGTCACCTAGTGCAG | 28200 fluorescence intensity (a.u.) |
| GGTATTGTGTGTGTAGTGATGTGCATGTGTGTGTTGATTTCGGAGTCACCTAGTGCAG | 3610 fluorescence intensity (a.u.) |
| ACACTGCCGCAGCCATTAAAGCCAACAAAAGATGACCTTGCGGAGTCACCTAGTGCAG | 3990 fluorescence intensity (a.u.) |
| CCGACCCTGCGTCACGGGCCCACATTGTCATACACGCCACCGGAGTCACCTAGTGCAG | 4000 fluorescence intensity (a.u.) |
| ACAGTAGTAGTTGAGGGATGTCAGATGAACTTATTCCGTGCGGAGTCACCTAGTGCAG | 3440 fluorescence intensity (a.u.) |
| GGTCCTGTGTAATTTTCTTCCGCGATGGCCACACGTGACGCGGAGTCACCTAGTGCAG | 4310 fluorescence intensity (a.u.) |
| GCATCCGGTGAGATCGATCTGATCGGATCGATCGATCATGCGGAGTCACCTAGTGCAG | 4600 fluorescence intensity (a.u.) |

As entered above:
TCCGCCGTTGACGACCACTCCCACGTGCCCTCCACTACACCGGAGTCACCTAGTGCAG – binding signal: 3600 fluorescence intensity (a.u.)
GGTATTGTGTGTGTAGTGATGTGCATGTGTGTGTTGATTTCGGAGTCACCTAGTGCAG – binding signal: 3610 fluorescence intensity (a.u.)
GGTATAAAAGATCCAGGAGAAGCATGCAACCCAGCAAGCCCGGAGTCACCTAGTGCAG – binding signal: 21300 fluorescence intensity (a.u.)

Continued.

| Sequence | binding signal |
| --- | --- |
| TGGAGTAGTGACTCGTGACGCAGCAACCGTTCGTCGCGCCCGGAGTCACCTAGTGCAG | 11400 fluorescence intensity (a.u.) |
| GAATCCTTCCAACCCGGCCCACCCGTAAACCGACCTATAGCGGAGTCACCTAGTGCAG | 3460 fluorescence intensity (a.u.) |
| CAAATCAACTGGCACACTAGTATACCCGAAGGCGAGTTTTCGGAGTCACCTAGTGCAG | 3280 fluorescence intensity (a.u.) |
| CAACACTGCAACAGACCATACACGTCCTTAGCATGTTGCACGGAGTCACCTAGTGCAG | 4400 fluorescence intensity (a.u.) |
| CAGTATATTCCAAGTTAACAGCTGTGCAGGACAAATCCACCGGAGTCACCTAGTGCAG | 3260 fluorescence intensity (a.u.) |
| GGTCTCTGCGCTGTCGGTGGCGCTGCTATCGTGACGACGTCGGAGTCACCTAGTGCAG | 3790 fluorescence intensity (a.u.) |
| TCAATCAACATGTATGTTGATGAATCGGATTCGTTCCGGTCGGAGTCACCTAGTGCAG | 4420 fluorescence intensity (a.u.) |
| TCCTAATAAACTCCTCCAATTCCTCGACGAATCAGTTTTCCGGAGTCACCTAGTGCAG | 11800 fluorescence intensity (a.u.) |
| GGCATCGTGATGAAGAACGTCTCCAATCCAATCATCATCGCGGAGTCACCTAGTGCAG | 3150 fluorescence intensity (a.u.) |
| CCTCATATTCCAAACTGACGGCGTCATCGCTGTCAAACGGCGGAGTCACCTAGTGCAG | 3300 fluorescence intensity (a.u.) |
| GCCATCCAACTATTTTCATGGATCAACATCATAGTAGTATCGGAGTCACCTAGTGCAG | 3140 fluorescence intensity (a.u.) |
| ACAAATAAATCCTTAAATACACTAACTATCGAATGCACGCCGGAGTCACCTAGTGCAG | 41300 fluorescence intensity (a.u.) |
| CCGCAGTCAAAATCTTGGAGGCCAGCTCAGATCTGTACTCCGGAGTCACCTAGTGCAG | 3630 fluorescence intensity (a.u.) |
| TTGCCGGTGTGTAGACCTTGCTCCCTTGCACTTTGGTGTGCGGAGTCACCTAGTGCAG | 3470 fluorescence intensity (a.u.) |
| CAAACACACAAGCGCCCACTCGTCACACGCTATACGGCACCGGAGTCACCTAGTGCAG | 3690 fluorescence intensity (a.u.) |
| CCTTTCAATCGAGGGTTGCCCGCCACGTAGCAGTGCGGTCCGGAGTCACCTAGTGCAG | 10300 fluorescence intensity (a.u.) |
| GTAGCGGGCGCGATGCGTCACCGTTCTCTTGCTGCTGCTGCGGAGTCACCTAGTGCAG | 8990 fluorescence intensity (a.u.) |
| TGGAAGGAAATTAGTGCGTGCAAATGCGGATTCCGATATGCGGAGTCACCTAGTGCAG | 3190 fluorescence intensity (a.u.) |
| TGGATTGGACACGTAAACGTGGAACGAAGACTCGGTCAATCGGAGTCACCTAGTGCAG | 5100 fluorescence intensity (a.u.) |
| GCCCGGCCCATCACCGTCACCCTCCCTCGTGTCCTCTTCACGGAGTCACCTAGTGCAG | 3160 fluorescence intensity (a.u.) |
| ACACTACTCCGTTCGTTTATTTTGACGTCATCGTATCTAACGGAGTCACCTAGTGCAG | 9000 fluorescence intensity (a.u.) |
